PubChem BioAssay AID1053208 | Peter MacCallum Cancer Centre, 2014

Purpose: 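Synthetic lethal interactions between gene loss and doxorubicin in osteosarcoma cells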 (primary screen)
Cells: mouse osteosarcoma cells, early-passage culture from an engineered mouse model of fibroblastic bone tumour
Reagent: siRNA pool against mouse genes, 40 nM
Timing: about 120 h (48 h before drug, then 72 h with drug)
Treatment: doxorubicin 100 nM for 72 h, roughly 30-40% inhibitory dose
Measurement: 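Viability read as ATP luminescence after 72 h of 100 nM doxorubicin or none, duplicate wells averaged, scaled to non-targeting siRNA, then expressed as robust z-scores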
Reading the numbers: viability z-score with doxorubicin: higher = more viable cells under doxorubicin; viability z-score without drug: higher = more viable cells with knock-down alone
Hit rule: 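Called active if knock-down leaves viability unchanged without drug (z within -2 to 2) but lowers it with doxorubicin (z at or under -2)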
The whole screen tested about 17,000 reagents; shown is a random part of them. Over the whole deposit, 788 (4.7%) got an active call. 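Calls rest on z-score classes alone; an extra cut-off of viability at most 70% of control was not applied to them.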 A number with no mark means an inactive call. Further read-outs or replicates are left out here.

gene | combined z-score class | viability z-score with doxorubicin | viability z-score without drug
Il5 (GeneID 16191) | no change with or without drug | -0.45 | -0.17
Fam149a (GeneID 212326) | no change with or without drug | 1.57 | 0.17
Dpcd (GeneID 226162) | no change with or without drug | 0.34 | 1.18
Aida (GeneID 108909) | no change with or without drug | 1.69 | 0.51
Sh2b2 (GeneID 23921) | no change with or without drug | -0.56 | -1.01
Tmtc1 (GeneID 387314) | no change with or without drug | 0.22 | 0.51
Glg1 (GeneID 20340) | no change with or without drug | 0.22 | -1.18

The list goes on; the last 2 above are carried over.
gene | combined z-score class | viability z-score with doxorubicin | viability z-score without drug
Tmtc1 (GeneID 387314) | no change with or without drug | 0.22 | 0.51
Glg1 (GeneID 20340) | no change with or without drug | 0.22 | -1.18
Usp16 (GeneID 74112) | no change with or without drug | -0.22 | 0.51
Plekhg6 (GeneID 213522) | no change with or without drug | 1.57 | -0.51
Tbc1d8b (GeneID 245638) | no change with or without drug | 0.34 | 0.51
Veph1 (GeneID 72789) | no change with or without drug | -0.22 | -1.18
Ankrd22 (GeneID 52024) | no change with or without drug | -0.45 | 0.51
Sema3c (GeneID 20348) | low cell count with doxorubicin only (active) | -2.02 | -0.84
Ctbs (GeneID 74245) | no change with or without drug | -1.8 | -0.51
Lzic (GeneID 69151) | no change with or without drug | 1.35 | 1.35
Pramel1 (GeneID 83491) | no change with or without drug | -1.35 | -1.52
Lsm7 (GeneID 66094) | no change with or without drug | 0.79 | -0.17
Wfdc15a (GeneID 68221) | no change with or without drug | 1.12 | 0.84
Itgb5 (GeneID 16419) | low cell count with doxorubicin only (active) | -2.14 | -1.18
B230220N19Rik (GeneID 319321) | no change with or without drug | 0.67 | -0.84
